According to patent US8426138B2 (priority 2006, dated 2013):
At least one structure is not confirmed: it was looked up by name or label, or the drawing left a doubt.

Columns and labels:
β2-adrenergic receptor = biological target: T1, β2-adrenergic receptor (Homo sapiens, UniProt P07550); type: cell-based
T1 construct: expressed in transfected cells; host or cells: C2C12 myoblasts (retroviral transduction)

endofin FYVE-GFP-α probe = assay: Fluorescence microscopy of endofin FYVE probe localization; type: cell-based; settings: 1 μM wortmannin (FIG. 4c)

COC[C@H]1OC(=O)c2coc3c2[C@@]1(C)C1=C(C3=O)[C@@H]2CCC(=O)[C@@]2(C)C[C@H]1OC(C)=O [wortmannin]
outcome in high-throughput screen of kinase/phosphatase inhibitor library (β2-adrenergic receptor): significant hit
localization of endofin FYVE-GFP-α probe upon treatment (endofin FYVE-GFP-α probe): relocalized to the cytoplasm
